In patent publication US20100041873A1:

Key:
[1] = target: Recombinant human IFN-λ (human); experiment: Western blot
[2] = target: Recombinant human IL-21 (human); experiment: Western blot
[3] = target: Recombinant human IFN-λ (human); experiment: Western blot; remark: listed apart in the source
[4] = target: Recombinant human IL-21 (human); experiment: SPR (Biacore T100), mAb immobilized, 100 nM IL-21
[5] = target: Recombinant human IL-21 (human); experiment: direct ELISA

B1: Human anti-human IL-21 monoclonal antibody 366.552.11 (antibody, V domains shown)
VH: QVQLQESGPGLVKPSETLSLTCTVSGGSISSDFWGWIRQPPGKGLEWIGYISSRGSTNYNPSLKRRVTISVDTSRNQFSLKLSSVTAADTAVYYCARSAGVTDFDFWGQGTLVTVSS
VL: DIQMTQSPSSVSASVGDRVTITCRASQGISSWLAWYQHKPGKAPKLLIYVASSLQSGVPSRFSGSGSGTDFTLTISSLQPEDFATYYCQQANSFPLTFGGGTKVEIK
**Q.** What does the source list for B1?
**A.** binding [1]: no binding (tested: 10 or 100 ng/ml mAb); binding [2]: binds; binding [3]: no binding; binding [4]: binds; binding [5]: binds

Read-outs that look alike come from different tables or passages of the source. Results are given in words; binding and its absence hold for the method and conditions named. For some assays here: Binding can be weak; no strength is given.
